Data reported in US20110046207.
The exact form of at least one protein or probe is not confirmed. For some of these results: A negative result means that nothing was seen under these conditions. For some of these results: Where a protein sequence is shown, tags need not be part of it.

Chains of the proteins cited; added tags and fusions are not shown. A line that says so, or that is headed by a name, gives the form on record, which may keep a tag or linker.
human complement C5 (alpha and beta chain) (Homo sapiens), one chain, as listed by the source: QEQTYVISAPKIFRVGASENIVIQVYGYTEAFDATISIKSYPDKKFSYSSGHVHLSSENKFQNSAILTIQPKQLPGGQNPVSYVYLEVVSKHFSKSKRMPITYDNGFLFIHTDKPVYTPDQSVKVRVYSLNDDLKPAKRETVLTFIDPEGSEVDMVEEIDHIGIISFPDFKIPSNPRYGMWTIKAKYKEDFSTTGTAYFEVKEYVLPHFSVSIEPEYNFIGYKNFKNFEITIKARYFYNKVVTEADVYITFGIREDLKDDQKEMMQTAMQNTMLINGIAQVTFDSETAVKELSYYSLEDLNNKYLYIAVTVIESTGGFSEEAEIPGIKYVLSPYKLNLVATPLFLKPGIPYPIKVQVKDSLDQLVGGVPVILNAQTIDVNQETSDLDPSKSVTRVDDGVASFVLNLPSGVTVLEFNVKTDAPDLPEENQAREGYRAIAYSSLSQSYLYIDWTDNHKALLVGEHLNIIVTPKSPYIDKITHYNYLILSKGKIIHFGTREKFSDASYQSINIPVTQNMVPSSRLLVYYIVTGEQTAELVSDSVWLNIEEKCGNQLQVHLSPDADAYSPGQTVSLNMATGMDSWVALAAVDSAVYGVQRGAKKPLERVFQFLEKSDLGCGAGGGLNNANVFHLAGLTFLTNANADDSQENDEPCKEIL

Tests used:
[1] = target: T1, human C5a (natural L-C5a) (Homo sapiens) (UniProt P01031); experiment: activity assay; conditions: L-RNA, 5'-40 kDa PEG, purified recombinant protein, protein details: recombinant, mirror-image nucleic acid
T1 sequence: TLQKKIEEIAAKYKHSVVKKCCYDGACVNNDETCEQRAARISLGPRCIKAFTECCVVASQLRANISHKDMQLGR

[2] = target: T1, human C5a (natural L-C5a) (Homo sapiens); experiment: activity in cells; conditions: L-RNA, purified recombinant protein, protein details: recombinant, mirror-image nucleic acid
[3] = test system: T2, rhesus monkey C5a (His6-macC5a) (Macaca mulatta); experiment: activity in cells; conditions: L-RNA, purified recombinant protein, protein details: His6, E. coli BL21, refolded, mirror-image nucleic acid
T2 sequence: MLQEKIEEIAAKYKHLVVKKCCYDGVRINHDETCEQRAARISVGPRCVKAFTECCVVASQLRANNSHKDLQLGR

[4] = test system: human complement C5 (alpha and beta chain) (Homo sapiens); experiment: filter binding; conditions: L-RNA with two 5' D-guanosines, 37 C, comparable to C5a binding, purified native protein, protein details: from human blood, Sigma Aldrich C3160, label: 5'-32P, mirror-image nucleic acid

With “CCCCGGGGGAUAAUUCGUUCAUUUGUGCGGGG [185-H3-014-REVERSE-5'-PEG Spiegelmer]” the “functional effect of the aptamer” value ([1]; reverse sequence, stated not to bind C5a, no effect on neutropenia, variant of 185-H3-014-5'-PEG Spiegelmer, dose not given here) was “not active”.

With “GCGCUUGUCCGAUUGGCGGCACCCUCGGGACUGGGGAGCGC [172-D7-013-5'-PEG Spiegelmer]” the IC50 ([2]; 5'-40 kDa PEG, C18-PEG spacer after nt 25, U937 calcium release, variant of 172-D7-013) was 6.5 nM.

In the case of “GCUGGGCGUGUUUACUUGCUUAAUAGGGGGCCCAGC [185-H3-001 Spiegelmer]”, the “functional effect of the aptamer” value ([3]; 100 nM Spiegelmer, no inhibition, variant of 185-H3-001) is reported as “not active”.

Sequence “GCUGGGCGUGUUUACUUGCUUAAUAGGGGGCCCAGC [185-H3-001-5'-PEG Spiegelmer]” has an IC50 ([2]; 5'-40 kDa PEG, U937 chemotaxis, 0.1 nM C5a, variant of 185-H3-001 Spiegelmer) of 3.2 nM.

“GGAGCGUGCUUGUCCGAUUGGCGGCACCCUUGCGGGACUGGGGAGUACGCU [gg-172-D7-000]”: binds ([4]; variant of 172-D7-000 Spiegelmer).

“GGCUGAACACGCCGCGUAGGACCCAAUGGGUAGAAUGGGCAGCC [179-A3-014 Spiegelmer]” showed an IC50 ([2]; U937 chemotaxis, variant of 179-A3-014) of 0.9 nM.

“GGCUGAACACGCCGCGUAGGACCCAAUGGGUAGAAUGGGCAGCC [179-A3-014-5'-PEG Spiegelmer]” was tested, and the IC50 ([2]; 5'-40 kDa PEG, U937 chemotaxis, 0.1 nM C5a, variant of 179-A3-014 Spiegelmer) was 1.8 nM and the “functional effect of the aptamer” value ([3]; 5'-40 kDa PEG, 100 nM Spiegelmer completely blocks chemotaxis to 0.8 nM monkey C5a, variant of 179-A3-014 Spiegelmer) was “active”.

“GGGCGCUUGUCCGAUUGGCGGCACCCUCGGGACUGGGGAGCGC [gg-172-D7-013]”: binds ([4]; C18-PEG spacer after nt 27, variant of 172-D7-013).

“GGGCUGAACACGCCGCGUAGGACCCAAUGGGUAGAAUGGGCAGC [gg-179-A3-015]”: binds ([4]; variant of 179-A3-015).

“GGGCUGGGCGUGUUUACUUGCUUAAUAGGGGGCCCAGC [gg-185-H3-001]”: binds ([4]; variant of 185-H3-001 Spiegelmer).

“GGGGCGUGUUUACUUGCUUAAUAGGGGGCCCC [185-H3-014-5'-PEG Spiegelmer]” was tested, and the “functional effect of the aptamer” value ([1]; attenuates C5a-induced neutropenia in gerbils at 10 mg/kg, not 2 mg/kg, variant of 185-H3-014) was “active”, the IC50 ([2]; 5'-40 kDa PEG, U937 chemotaxis, 0.1 nM C5a, variant of 185-H3-014) was 1.5 nM and the “functional effect of the aptamer” value ([3]; 5'-40 kDa PEG, 100 nM Spiegelmer, no inhibition, variant of 185-H3-014) was “not active”.

“GGGGCUGAACACGCCGCGUAGGACCCAAUGGGUAGAAUGGGCAGCC [gg-179-A3-014]”: binds ([4]; variant of 179-A3-014 Spiegelmer).

“GGGGGCGUGUUUACUUGCUUAAUAGGGGGCCC [gg-185-H3-003]”: binds ([4]; variant of 185-H3-003).

“GGGGGGCGUGUUUACUUGCUUAAUAGGGGGCCCC [gg-185-H3-014]”: binds ([4]; variant of 185-H3-014).

“GGGUACUGCGUUCGGACGUGGCAUGUUCCUUGACAAACGGUUGGCAGUAC [gg-182-E5]”: binds ([4]; variant of 182-E5 Spiegelmer).

“GGGUGCUGCGUUCGGACGUGGCAUGUUCCUUGACAAACGGUUGGCAGCAC [gg-182-C5]”: binds ([4]; variant of 182-C5).

“GGUGGGCGUGUUUACUUGCUUAAUAGGGGGCCCA [gg-185-H3-002]”: binds ([4]; variant of 185-H3-002).

For “GUACUGCGUUCGGACGUGGCAUGUUCCUUGACAAACGGUUGGCAGUAC [182-E5 Spiegelmer]”, the IC50 ([2]; U937 chemotaxis, 0.1 nM C5a, variant of 182-E5) was 1.2 nM.

For “GUGCUGAACACGCCGCGUAGGACUUCAAUGGAGUAGAAUGGGCAGCAC [179-A3 Spiegelmer]”, the IC50 ([2]; U937 chemotaxis, 0.1 nM C5a, variant of 179-A3) was 0.9 nM.
